PMC9124818 (Pharmacology Research & Perspectives, 2022)

Protein sequences, listed by entry. Tags and fused reporters are not part of them.
UniProt P08684, whole entry, looked up: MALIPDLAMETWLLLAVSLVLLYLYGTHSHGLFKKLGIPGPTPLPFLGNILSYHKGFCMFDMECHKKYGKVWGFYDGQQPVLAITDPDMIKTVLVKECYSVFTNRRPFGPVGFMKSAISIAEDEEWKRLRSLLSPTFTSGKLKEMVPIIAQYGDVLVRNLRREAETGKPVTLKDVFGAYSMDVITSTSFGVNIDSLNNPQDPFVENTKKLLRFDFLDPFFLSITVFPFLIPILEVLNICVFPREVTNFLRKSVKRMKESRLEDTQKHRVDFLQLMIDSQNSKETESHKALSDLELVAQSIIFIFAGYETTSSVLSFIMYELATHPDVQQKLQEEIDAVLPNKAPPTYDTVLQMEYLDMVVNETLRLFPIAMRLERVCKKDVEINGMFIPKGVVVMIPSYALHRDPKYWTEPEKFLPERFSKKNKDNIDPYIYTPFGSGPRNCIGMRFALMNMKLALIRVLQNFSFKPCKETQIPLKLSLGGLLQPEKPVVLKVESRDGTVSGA

Molecular target: CYP3A4/5 (UniProt P08684)
Test: Direct CYP450 inhibition in human liver microsomes (midazolam 1'-hydroxylation; testosterone 6β-hydroxylation)
Settings: substrate testosterone (6β hydroxylase activity), FFA up to 600 µM, nFFA up to 100 µM, tested form: HCl

## CC(N)Cc1cccc(C(F)(F)F)c1.Cl (stereo not shown) [nFFA, [1‐(3‐trifluoromethyl)phenyl]propan‐2‐amine hydrochloride]
  Inhibition (%): up to 2.8% and 2.8%

The source holds more than one record for some entries. The list is limited to them. An entry can have further records. The values listed for one entry differ for a reason that is not stated; they may come from other doses, times, organisms or constructs than stated.
